# Laboratory results: the supplement of paper PMC4604168 (melanoma cell lines)
# The list shows a part of the results. Repeats are few or missing, and single values can be far off.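 The apoptosis fraction was the count of cleaved-PARP antibody-stained nuclei relative to all DNA-stained nuclei, imaged in 1,536-well plates. Screening doses were set so most cells survived, and baseline and induced cleaved-PARP levels vary greatly across cell lines.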
# Assays:
# Assay in all cases: cleaved PARP positive nuclei fraction relative to DMSO control; melanoma cells; higher = more apoptosis
# Conditions in all cases: library dose: low library concentration; 72 h
# 501Mel = tested on: 501Mel
# A101D = tested on: A101D
# A2058 = tested on: A2058
# A375 = tested on: A375
# C32 = tested on: C32
# CBRC008 = tested on: CBRC008 (line from a melanoma biopsy)
# CBRC013 = tested on: CBRC013 (line from a melanoma biopsy)
# CBRC014 = tested on: CBRC014 (line from a melanoma biopsy)
# CBRC016 = tested on: CBRC016 (line from a melanoma biopsy)
# CBRC017 = tested on: CBRC017 (line from a melanoma biopsy)
SMILES,cleaved PARP positive nuclei fraction (501Mel) [%],cleaved PARP positive nuclei fraction (A101D) [%],cleaved PARP positive nuclei fraction (A2058) [%],cleaved PARP positive nuclei fraction (A375) [%],cleaved PARP positive nuclei fraction (C32) [%],cleaved PARP positive nuclei fraction (CBRC008) [%],cleaved PARP positive nuclei fraction (CBRC013) [%],cleaved PARP positive nuclei fraction (CBRC014) [%],cleaved PARP positive nuclei fraction (CBRC016) [%],cleaved PARP positive nuclei fraction (CBRC017) [%]
"COc1ccc(C2=N[C@@H](c3ccc(Cl)cc3)[C@@H](c3ccc(Cl)cc3)N2C(=O)N2CCNC(=O)C2)c(OC(C)C)c1 [Nutlin-3] + C[C@@H]1CCN(C(=O)CC#N)C[C@@H]1N(C)c1ncnc2[nH]ccc12 [CP690550] (first compound 0.1 µM, partner dose 1 µM)",78,93,217,20.9,89.4,173,110,83.3,57.5,110
"COc1ccc(C2=N[C@@H](c3ccc(Cl)cc3)[C@@H](c3ccc(Cl)cc3)N2C(=O)N2CCNC(=O)C2)c(OC(C)C)c1 [Nutlin-3] + Cc1cc(N2CCOCC2)cc2[nH]c(-c3c(NC[C@@H](O)c4cccc(Cl)c4)cc[nH]c3=O)nc12 [BMS536924] (first compound 0.1 µM, partner dose 0.2 µM)",223,93.7,60.1,217,113,366,78.5,106,65.4,102
"CN(c1ncccc1CNc1nc(Nc2ccc3c(c2)CC(=O)N3)ncc1C(F)(F)F)S(C)(=O)=O + O=C(Nc1cccc(Cl)c1)Nc1ncc(CCNc2ncnc3ccsc23)s1 [SNS314] (first compound 0.08 µM, partner dose 0.0008 µM)",115,82.9,73.2,60.5,334,125,77.7,87,84.3,84.6
"COc1ccc(C2=N[C@@H](c3ccc(Cl)cc3)[C@@H](c3ccc(Cl)cc3)N2C(=O)N2CCNC(=O)C2)c(OC(C)C)c1 [Nutlin-3] + OCCn1cc(-c2cnc3nnn(Cc4ccc5ncccc5c4)c3n2)cn1 [PF04217903] (first compound 0.1 µM, partner dose 1 µM)",153,156,97.5,234,224,51.8,67.7,84.1,63,115
"COc1ccc(C2=N[C@@H](c3ccc(Cl)cc3)[C@@H](c3ccc(Cl)cc3)N2C(=O)N2CCNC(=O)C2)c(OC(C)C)c1 [Nutlin-3] + CN(NC(=O)CC(=O)NN(C)C(=S)c1ccccc1)C(=S)c1ccccc1 [STA4783] (first compound 0.1 µM, partner dose 0.006 µM)",375,185,152,8950,115,1790,195,656,46.3,275
"CS(=O)(=O)c1ccc(C(=O)Nc2ccc(Cl)c(-c3ccccn3)c2)c(Cl)c1 [vismodegib] + Cn1cncc1[C@@](N)(c1ccc(Cl)cc1)c1ccc2c(c1)c(-c1cccc(Cl)c1)cc(=O)n2C [tipifarnib] (first compound 1 µM, partner dose 0.01 µM)",94.2,146,24.7,121,93.5,184,114,102,57.7,120
"CN(c1ncccc1CNc1nc(Nc2ccc3c(c2)CC(=O)N3)ncc1C(F)(F)F)S(C)(=O)=O + Cn1cncc1[C@@](N)(c1ccc(Cl)cc1)c1ccc2c(c1)c(-c1cccc(Cl)c1)cc(=O)n2C [tipifarnib] (first compound 0.08 µM, partner dose 0.01 µM)",91.8,103,157,137,160,234,233,317,189,67
"CC1(C)CCC(c2ccc(Cl)cc2)=C(CN2CCN(c3ccc(C(=O)NS(=O)(=O)c4ccc(N[C@H](CCN5CCOCC5)CSc5ccccc5)c(S(=O)(=O)C(F)(F)F)c4)cc3)CC2)C1 + C=CCn1c(=O)c2cnc(Nc3ccc(N4CCN(C)CC4)cc3)nc2n1-c1cccc(C(C)(C)O)n1 [MK1775] (first compound 0.4 µM, partner dose 0.02 µM)",387,297,60.8,997,697,798,395,422,438,329
"CN(c1ncccc1CNc1nc(Nc2ccc3c(c2)CC(=O)N3)ncc1C(F)(F)F)S(C)(=O)=O + NCC(=O)Nc1ccc(-n2nc(C(F)(F)F)cc2-c2ccc3c(ccc4ccccc43)c2)cc1 [OSU03012] (first compound 0.08 µM, partner dose 1 µM)",194,90.9,357,1030,79.5,231,135,111,160,87.5
"CCCCCCCCc1ccc(CCC(N)(CO)CO)cc1 [fingolimod] + COc1cc(Nc2ncc(F)c(Nc3ccc4c(n3)NC(=O)C(C)(C)O4)n2)cc(OC)c1OC [Tamatinib] (first compound 2 µM, partner dose 0.4 µM)",42.7,100,159,284,90.7,323,162,147,42,104
"CS(=O)(=O)c1ccc(C(=O)Nc2ccc(Cl)c(-c3ccccn3)c2)c(Cl)c1 [vismodegib] + COc1cc(Nc2ncc(F)c(Nc3ccc4c(n3)NC(=O)C(C)(C)O4)n2)cc(OC)c1OC [Tamatinib] (first compound 1 µM, partner dose 0.4 µM)",92.6,96.3,20,120,134,127,159,95.2,32.4,102
"CS(=O)(=O)c1ccc(C(=O)Nc2ccc(Cl)c(-c3ccccn3)c2)c(Cl)c1 [vismodegib] + CN(C)S(=O)(=O)c1ccc2c(c1)/C(=C/c1cc3c([nH]1)CCCC3)C(=O)N2 [SU6656] (first compound 1 µM, partner dose 0.4 µM)",118,73.9,219,53.7,163,124,215,109,116,121
"CCCCCCCCc1ccc(CCC(N)(CO)CO)cc1 [fingolimod] + COc1cc2c(Oc3ccc4[nH]c(C)cc4c3F)ncnc2cc1OCCCN1CCCC1 [cediranib] (first compound 2 µM, partner dose 0.4 µM)",289,174,35.4,228,115,124,176,109,64,110
"CCCCCCCCc1ccc(CCC(N)(CO)CO)cc1 [fingolimod] + CN(NC(=O)CC(=O)NN(C)C(=S)c1ccccc1)C(=S)c1ccccc1 [STA4783] (first compound 2 µM, partner dose 0.006 µM)",470,103,174,2080,250,740,117,384,226,133
"COc1ccc(C2=N[C@@H](c3ccc(Cl)cc3)[C@@H](c3ccc(Cl)cc3)N2C(=O)N2CCNC(=O)C2)c(OC(C)C)c1 [Nutlin-3] + O=C(CCCCCCC(=O)Nc1ccccc1)NO [vorinostat] (first compound 0.1 µM, partner dose 0.08 µM)",172,45,137,66.7,42.6,52.6,107,92.1,66.2,109
"Cn1cnc2c(F)c(Nc3ccc(Br)cc3Cl)c(C(=O)NOCCO)cc21 [selumetinib] + CC(C)(C)c1cnc(CSc2cnc(NC(=O)C3CCNCC3)s2)o1 [SNS-032] (first compound 0.015 µM, partner dose 0.01 µM)",174,94.2,77.9,340,89.3,108,135,83.9,132,105
"CC(=O)O[C@@]12CO[C@@H]1C[C@H](O)[C@@]1(C)C(=O)[C@H](O)C3=C(C)[C@@H](OC(=O)[C@H](O)[C@@H](NC(=O)OC(C)(C)C)c4ccccc4)C[C@@](O)([C@@H](OC(=O)c4ccccc4)[C@H]21)C3(C)C [Docetaxel] + CN(NC(=O)CC(=O)NN(C)C(=S)c1ccccc1)C(=S)c1ccccc1 [STA4783] (first compound 0.0001 µM, partner dose 0.006 µM)",190,138,6770,12800,380,1490,161,549,1570,264
"C[C@]1(O)C[C@@H](c2nc(-c3ccc4ccc(-c5ccccc5)nc4c3)c3c(N)nccn32)C1 + Cc1ccc(NC(=O)c2cccc(N(C)C)c2)cc1NC(=O)c1ccc(O)cc1 [ZM336372] (first compound 0.4 µM, partner dose 2 µM)",93.7,46.4,52.3,46,114,139,100,102,100,119
"NC1(c2ccc(-c3nc4ccn5c(=O)[nH]nc5c4cc3-c3ccccc3)cc2)CCC1 + COc1cc2c(Oc3ccc4[nH]c(C)cc4c3F)ncnc2cc1OCCCN1CCCC1 [cediranib] (first compound 0.4 µM, partner dose 0.4 µM)",105,56.4,101,52,119,108,128,71.8,96.5,82.9
"CCN(CC)CCNC(=O)c1c(C)[nH]c(/C=C2\C(=O)Nc3ccc(F)cc32)c1C [sunitinib] + CN(NC(=O)CC(=O)NN(C)C(=S)c1ccccc1)C(=S)c1ccccc1 [STA4783] (first compound 0.4 µM, partner dose 0.006 µM)",149,126,84.7,339,173,1520,304,455,134,306

# Single records, as listed above. Values in the order: cleaved PARP positive nuclei fraction (501Mel) [%] | cleaved PARP positive nuclei fraction (A101D) [%] | cleaved PARP positive nuclei fraction (A2058) [%] | cleaved PARP positive nuclei fraction (A375) [%] | cleaved PARP positive nuclei fraction (C32) [%] | cleaved PARP positive nuclei fraction (CBRC008) [%] | cleaved PARP positive nuclei fraction (CBRC013) [%] | cleaved PARP positive nuclei fraction (CBRC014) [%] | cleaved PARP positive nuclei fraction (CBRC016) [%] | cleaved PARP positive nuclei fraction (CBRC017) [%]
# CCCCCCCCc1ccc(CCC(N)(CO)CO)cc1 [fingolimod] + COc1cc(Nc2ncc(F)c(Nc3ccc4c(n3)NC(=O)C(C)(C)O4)n2)cc(OC)c1OC [Tamatinib] (first compound 2 µM, partner dose 0.4 µM) as listed: 42.7 | 100 | 159 | 284 | 90.7 | 323 | 162 | 147 | 42 | 104
# CS(=O)(=O)c1ccc(C(=O)Nc2ccc(Cl)c(-c3ccccn3)c2)c(Cl)c1 [vismodegib] + Cn1cncc1[C@@](N)(c1ccc(Cl)cc1)c1ccc2c(c1)c(-c1cccc(Cl)c1)cc(=O)n2C [tipifarnib] (first compound 1 µM, partner dose 0.01 µM) as listed: 94.2 | 146 | 24.7 | 121 | 93.5 | 184 | 114 | 102 | 57.7 | 120
